Data: article PMC11269665
Results are given in words; binding and its absence hold for the method and conditions named. In cells and extracts the contact can be indirect. Here binding means that the protein was enriched with, or labelled near, the bait; the list need not be complete.

Chains of the proteins cited; added tags and fusions are not shown.
UniProt Q14532: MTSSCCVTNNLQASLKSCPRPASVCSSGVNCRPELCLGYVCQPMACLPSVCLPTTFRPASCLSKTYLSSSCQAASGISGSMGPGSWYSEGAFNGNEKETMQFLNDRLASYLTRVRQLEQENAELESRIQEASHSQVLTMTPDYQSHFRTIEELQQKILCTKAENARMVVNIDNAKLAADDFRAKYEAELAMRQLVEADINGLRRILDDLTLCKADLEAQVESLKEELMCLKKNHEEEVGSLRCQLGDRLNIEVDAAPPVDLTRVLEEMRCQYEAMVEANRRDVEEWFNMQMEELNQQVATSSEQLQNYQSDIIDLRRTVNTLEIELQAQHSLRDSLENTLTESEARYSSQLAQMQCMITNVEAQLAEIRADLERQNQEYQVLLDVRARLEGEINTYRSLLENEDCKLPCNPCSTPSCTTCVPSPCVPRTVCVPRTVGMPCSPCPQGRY
UniProt Q9Y6K9: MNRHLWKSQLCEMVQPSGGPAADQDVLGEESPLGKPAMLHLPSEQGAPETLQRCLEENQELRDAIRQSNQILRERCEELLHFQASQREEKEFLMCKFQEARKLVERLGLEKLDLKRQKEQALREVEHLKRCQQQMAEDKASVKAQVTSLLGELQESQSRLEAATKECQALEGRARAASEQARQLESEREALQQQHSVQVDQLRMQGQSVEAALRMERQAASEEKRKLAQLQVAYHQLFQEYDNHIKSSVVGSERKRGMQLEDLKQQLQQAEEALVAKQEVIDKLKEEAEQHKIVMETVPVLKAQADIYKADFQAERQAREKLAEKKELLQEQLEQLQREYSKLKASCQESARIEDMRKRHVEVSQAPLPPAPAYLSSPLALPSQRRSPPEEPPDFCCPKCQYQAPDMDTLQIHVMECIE

Molecular target: GST-KRT32 (human) (UniProt Q14532)
Assay: affinity purification with mass spectrometry; E. coli extracts containing GST-KRT32 (GST as control) incubated 12 h with primary keratinocyte lysate and glutathione-Sepharose beads; gel bands analysed by mass spectrometry (n = 1)

- binding: binds
Substance: NEMO (endogenous) (from UniProt Q9Y6K9 1-419)
